Results of single-concentration screens

The chains behind the UniProt entries cited, without tags or fusion partners.
UniProt P9WNZ1, whole entry: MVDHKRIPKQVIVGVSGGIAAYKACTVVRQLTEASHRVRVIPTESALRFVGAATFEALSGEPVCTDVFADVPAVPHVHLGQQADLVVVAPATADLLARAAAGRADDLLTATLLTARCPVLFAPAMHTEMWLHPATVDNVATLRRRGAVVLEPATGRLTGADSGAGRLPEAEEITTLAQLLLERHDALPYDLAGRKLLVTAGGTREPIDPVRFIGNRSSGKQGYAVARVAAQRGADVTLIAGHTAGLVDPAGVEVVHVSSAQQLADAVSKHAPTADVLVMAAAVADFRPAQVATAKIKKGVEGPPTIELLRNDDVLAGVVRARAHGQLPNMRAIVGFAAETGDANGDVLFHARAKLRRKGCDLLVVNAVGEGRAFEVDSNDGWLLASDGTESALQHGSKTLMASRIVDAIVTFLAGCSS

A: 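Cell assay of Leishmania donovani living inside macrophages; the read-out is not stated. Concentration: 30 µM. Direction is inferred from retests: higher values go with stronger inhibition. Of about 69,000 compounds tested this way, about 1,000 (1.5%) reached 50% or more in at least one test.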
B: 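Coenzyme A biosynthesis protein CoaBC, Mycobacterium tuberculosis (UniProt P9WNZ1). Enzyme assay of CoaBC with a phosphate dye (Biomol Green) read at 650 nm. Compounds at 30 µM. Higher reads as stronger inhibition, judged from the few compounds that gave an IC50. Most strong results did not repeat in a second test. About 67,000 compounds were tested under these conditions; 0.06% (about 40) showed 50% or more at least once.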

Values are the deposited “Percent Effect”, in %. The controls that fix the scale are not given in the record; negative values are as filed. This is an unselected part of the compounds tested. Two or more numbers in one place are separate tests of the same structure; such repeats can differ widely.

With CCCC(C)(O)c1cc(C(N)=O)no1 (configuration not stated) the screen gave A: -9.976%; B: -0.3367%.
With N#Cc1cccc(CN2C[C@@H](F)[C@@H](OCc3nc4ccccc4[nH]3)C2)c1 the screen gave A: 23.86%; B: 10.02%.
With Cn1nccc1-c1cccc(CC2CCN(S(C)(=O)=O)C2)n1 (configuration not stated) the screen gave A: 29.49%; B: -3.632%.
With CNC(=O)c1cnc2c(C)csc2c1 the screen gave A: 1.992%; B: 1.942%.
With Cc1cc(C(=O)N(CC(C)C)CC(O)c2ccc(F)cc2)[nH]n1 (configuration not stated) the screen gave A: 0.1548%; B: 1.942%.
With CC(C)C(=O)N1CCCC(c2cncc(Oc3cccnc3)n2)C1 (configuration not stated) the screen gave A: -12.6% & -3.065%; B: 0.9685%.
With CN1CCC(c2nnc3ccc(C(=O)N4CCCCC4)cn23)C1 (configuration not stated) the screen gave B: 3.623%.
With CNc1cc(C(=O)N(C)Cc2cc(-c3cccs3)n[nH]2)ccn1 the screen gave A: 14.47%; B: -3.739%.
With Cc1ccc(C(=O)NCCCNS(C)(=O)=O)cc1-n1cccc1 the screen gave A: 19.77%; B: 5.533%.
With OCc1ccc(Cl)c(NCc2cccnc2)c1 the screen gave A: -7.482%; B: 10.39%.
With COCC1CN(C(=O)Cc2cccc(F)c2)Cc2ccnn2C1 (configuration not stated) the screen gave B: 2.538%.
With Cc1nc(N2CCOCC2)nc2c1CCN(Cc1nccn1C)CC2.O=C(O)C(F)(F)F the screen gave A: 15.53%.
With CC1(C)[C@H]2CC=C(CN3CCCn4nc(CNS(C)(=O)=O)cc4C3)[C@@H]1C2 the screen gave B: 2.978%.
With CC1CN(Cc2ccccn2)CCN1c1ccc2nncn2n1 (configuration not stated) the screen gave A: 14.54%; B: -2.194%.
With O=C1CCCN1Cc1noc(-c2ccc(Cl)cc2)n1 the screen gave A: -2.316%; B: 2.895%.
With CC(C(=O)N1CCCC1)N1CCC(c2nccn2CC2CCC2)CC1 (configuration not stated) the screen gave A: 31.77%; B: -0.8772%.
With COc1ccc(Cl)cc1CS(=O)(=O)CC(=O)NC(C)CCC(C)C (configuration not stated) the screen gave A: 2.911%; B: 3.828%.
With CC(c1nncn1C)n1cc(-c2cc(CN3CCCC3)cs2)nn1 (configuration not stated) the screen gave A: 11.7%; B: 11.57%.
With CC(=O)c1ccc(N2CCC3(CC2)CC(=O)N(C)C3)nc1 the screen gave A: 12.69%; B: -0.6452%.
With CN(CCc1ccccn1)C(=O)Nc1cccnc1N1CCCC1 the screen gave A: -40.2%; B: 9.337%.
With CC(C)c1nccn1CCC(=O)N1CCCCC1c1ccn[nH]1 (configuration not stated) the screen gave A: 25.36%; B: 0.9569%.
With O=C(CC1COCCN1S(=O)(=O)c1ccccc1)NCc1ccccn1 (configuration not stated) the screen gave A: 5.643%; B: 7.807%.
With O=C(Nc1nccs1)NC1CCOc2ccccc21 (configuration not stated) the screen gave A: 20.45%; B: 4.97%.
With O=C(Cc1cccc(Cl)c1)Nc1cnccc1SCCCO the screen gave A: -29.18%; B: 1.297%.
With Cc1cc2c(=O)n3c(nc2s1)CCN(Cc1cnn(C)c1C)CC3 the screen gave B: -13.61%.
With Cc1ccc(C(=O)N2CCCC(c3nncn3C)C2)c(C)c1 (configuration not stated) the screen gave A: 13.98%; B: 6.005%.
With COc1cccc2sc(OC3CN(C(=O)C4=COCCO4)C3)nc12 the screen gave A: 0.166%; B: 2.806%.
With Cc1cc(C)c2nc(CNC3CCCNC3=O)cc(O)c2c1 (configuration not stated) the screen gave A: -52.42%; B: 7.127%.
With COc1ccc(NC(=O)C2CCCO2)cc1OCc1cccnc1 (configuration not stated) the screen gave A: -42.47%; B: 1.737%.
With CCOc1ccccc1CC(=O)N1C[C@@H](C(=O)O)[C@H](c2ccncc2)C1 the screen gave A: -17.19%; B: 5.124%.

2 of the entries, repeated:

- Cn1nccc1-c1cccc(CC2CCN(S(C)(=O)=O)C2)n1 (configuration not stated) | A: 29.49%; B: -3.632%
- Cc1ccc(C(=O)N2CCCC(c3nncn3C)C2)c(C)c1 (configuration not stated) | A: 13.98%; B: 6.005%

Measurements from “University of Dundee, Small-Polar-MMV Screening Library” (2021), ChEMBL document CHEMBL3988442.